The target in this assay is Epidermal Growth Factors Receptor (human (from sEVs of human umbilical cord MSCs, taken up by RAW264.7 cells)) (UniProt P00533). The assay is described as follows: co-IP; RAW264.7 cells that received 4D-sEVs, lysed in RIPA buffer with protease and phosphatase inhibitors; lysate pre-cleared, incubated with anti-IGFBP2, anti-EGFR or IgG (1:100) 2 h at room temperature, Protein A+G agarose overnight at 4 °C, washed 3 times with PBS, Western blot.

Chains of the proteins cited; added tags and fusions are not shown. Residues count along the entry.
UniProt P18065, residues 36-325: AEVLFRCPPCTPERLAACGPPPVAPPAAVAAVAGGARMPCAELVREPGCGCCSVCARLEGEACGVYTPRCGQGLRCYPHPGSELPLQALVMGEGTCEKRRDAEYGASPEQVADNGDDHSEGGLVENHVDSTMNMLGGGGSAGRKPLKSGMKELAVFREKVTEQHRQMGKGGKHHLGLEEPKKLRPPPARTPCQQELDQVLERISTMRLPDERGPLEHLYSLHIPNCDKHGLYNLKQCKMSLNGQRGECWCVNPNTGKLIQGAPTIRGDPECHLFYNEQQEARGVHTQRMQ

These are yes or no findings as the source states them, for the method shown. In cells and extracts the contact can be indirect. Some entries that bind do so weakly or less than the wild type.

For “Insulin-like Growth Factor Binding Protein 2 (from UniProt P18065 36-325)”, the binding result was “binds”.

Values taken from article PMC10176095.
